# Test results as given in the supplement of paper PMC3741180, “A Novel High Throughput Biochemical Assay to Evaluate the HuR Protein-RNA Complex Formation” (PLoS ONE, 2013).
# The chains behind the UniProt entries cited, without tags or fusion partners.
# UniProt Q15717, whole entry: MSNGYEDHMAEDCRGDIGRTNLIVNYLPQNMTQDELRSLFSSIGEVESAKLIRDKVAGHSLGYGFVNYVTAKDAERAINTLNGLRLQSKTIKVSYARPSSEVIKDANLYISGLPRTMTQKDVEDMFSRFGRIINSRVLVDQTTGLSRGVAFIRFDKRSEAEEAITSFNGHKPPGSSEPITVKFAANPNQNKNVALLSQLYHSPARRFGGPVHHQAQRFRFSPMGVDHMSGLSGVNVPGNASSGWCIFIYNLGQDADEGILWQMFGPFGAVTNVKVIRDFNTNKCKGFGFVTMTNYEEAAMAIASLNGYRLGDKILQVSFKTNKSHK
# The list shows a part of the results. This data set is noisy: repeats of one test often differ as much as different tests do.
# Molecular target: HuR (ELAVL1) - TNFalpha ARE RNA complex (UniProt Q15717)
# Assay: AlphaScreen HuR-RNA complex signal Z-score relative to positive controls (secondary screen) (Z-score (SD units of positive control)); higher = more complex signal
# Settings: screen stage: secondary re-screen
row,Structure (SMILES),AlphaScreen HuR-RNA complex signal Z-score
1,CN(C)CCCO[C@@H]1[C@H]2OC(C)(C)O[C@H]2O[C@@H]1[C@H](O)CO,1.08
2,NNCCc1ccccc1,1.3
3,COc1c2ccoc2cc2oc(C)cc(=O)c12,0.668
4,CN(C)CCCN1c2ccccc2Sc2ccc(Cl)cc21,0.256
5,CN(C)[C@@H]1C(O)=C(C(N)=O)C(=O)[C@@]2(O)C(O)=C3C(=O)c4c(O)ccc(Cl)c4[C@@](C)(O)[C@H]3C[C@@H]12,0.918
6,CCCc1nc(C(C)(C)O)c(C(=O)OCc2oc(=O)oc2C)n1Cc1ccc(-c2ccccc2-c2nnn[nH]2)cc1,2.11
7,CCC(C)(C)C(=O)O[C@H]1C[C@@H](C)C=C2C=C[C@H](C)[C@H](CC[C@@H]3C[C@@H](O)CC(=O)O3)[C@H]21,1.54
8,Cc1cc2c(s1)Nc1ccccc1N=C2N1CCN(C)CC1,2.27
9,OC[C@@H](O)[C@@H](O)[C@H](O)[C@H](O)CO,0.573
10,CC(=O)N(O)CCCCCNC(=O)CCC(=O)N(O)CCCCCNC(=O)CCC(=O)N(O)CCCCCN,1.48
11,O=C(O)CN(CCN(CC(=O)O)CC(=O)O)CC(=O)O.[Na+].[Na+].[Na+],0.596
12,C[C@@H]1CC[C@@]23CCC4(C)[C@@](C=CC5[C@@]6(C)CC[C@H](O)C(C)(C)C6CC[C@]54C)(OC2=O)C3[C@H]1C (stereo partly specified),1.27
13,C[C@@H]1C[C@H]2[C@@H]3CCC4=CC(=O)C=C[C@]4(C)[C@@]3(F)[C@@H](O)C[C@]2(C)[C@@]1(O)C(=O)COP(=O)(O)O,0.717
14,Nc1nc2[nH]cnc2c(=S)[nH]1,2.26
15,C=C(NC(=O)C(=C)NC(=O)c1csc(C2=N[C@@H]3c4csc(n4)[C@H]4NC(=O)c5csc(n5)[C@H]([C@](C)(O)[C@@H](C)O)NC(=O)[C@H]5CSC(=N5)/C(=C/C)NC(=O)[C@H]([C@@H](C)O)NC(=O)c5csc(n5)[C@]3(CC2)NC(=O)[C@H](C)NC(=O)C(=C)NC(=O)[C@H](C)NC(=O)[C@H]([C@@H](C)CC)N[C@@H]2C=Cc3c([C@H](C)O)cc(nc3[C@H]2O)C(=O)O[C@@H]4C)n1)C(N)=O,2.86
16,O=C(O)c1cc(/N=N/c2ccc(S(=O)(=O)Nc3ccccn3)cc2)ccc1O,3.55
17,CCc1ccc(CCOc2ccc(CC3SC(=O)NC3=O)cc2)nc1 (stereo unspecified),1.54
18,CO/N=C(\C(=O)N[C@@H]1C(=O)N2C(C(=O)OCOC(=O)C(C)(C)C)=C(/C=C\c3scnc3C)CS[C@H]12)c1csc(N)n1,0.0455

row,Structure (SMILES),AlphaScreen HuR-RNA complex signal Z-score
1,COc1c(O)cc2c(-c3ccccc3)cc(=O)oc2c1OC,1.94
2,Cc1cc(C2CCCCC2)n(O)c(=O)c1,0.675
3,CCCCCCc1ccc(O)cc1O.Nc1c2ccccc2nc2ccccc12,1.12
4,OCCN1C[C@H](O)[C@@H](O)[C@H](O)[C@H]1CO,0.754
5,O=c1c(O)c(-c2ccc(O)c(O)c2)oc2cc(O)cc(O)c12,0.282
6,CC(C)[N+]1(C)[C@@H]2CC[C@H]1C[C@@H](OC(=O)C(CO)c1ccccc1)C2 (stereo partly specified),0.674
7,CCCCCCCCCCCCCCCC(=O)OC[C@H](O)[C@H]1OC(=O)C(O)=C1O,-0.265
8,C[C@H](N)[C@H](O)c1cccc(O)c1,2.26
9,CC(=O)c1ccc2c(c1)N(CCCN(C)C)c1ccccc1S2,-0.289
10,CN(C)CCN(Cc1ccccc1)c1ccccn1,1.91
11,C=CC(C1=CC(=O)C(OC)=CC1=O)c1ccc(O)cc1 (stereo unspecified),1.32
12,CC=CC(=O)N(CC)c1ccccc1C,1.64
13,CN1CCN(CCCN2c3ccccc3Sc3ccc(C(F)(F)F)cc32)CC1,2.57
14,CC1CC(OC(=O)c2ccccc2O)CC(C)(C)C1 (stereo unspecified),2.27
15,C[C@H]1c2cccc(O)c2C(=O)C2=C(O)[C@]3(O)C(=O)C(C(N)=O)=C(O)[C@@H](N(C)C)[C@@H]3[C@@H](O)[C@@H]21,1.21
16,Cc1ccc(/C(=C\CN2CCCC2)c2ccccn2)cc1,1.25
17,O=C([O-])[C@H]1/C(=C/CO)O[C@@H]2CC(=O)N21.[Li+],1.77
18,CC(C)=CCc1c2c(c3occ(-c4ccc(O)cc4)c(=O)c3c1O)C=CC(C)(C)O2,-0.0554

# As entered above:
# COc1c(O)cc2c(-c3ccccc3)cc(=O)oc2c1OC – AlphaScreen HuR-RNA complex signal Z-score: 1.94
# O=C([O-])[C@H]1/C(=C/CO)O[C@@H]2CC(=O)N21.[Li+] – AlphaScreen HuR-RNA complex signal Z-score: 1.77
